Laboratory results reported in PMC7583056, “Synthesis, Characterisation and In Vitro Anticancer Activity of Catalytically Active Indole-Based Half-Sandwich Complexes” (Molecules, 2020).

Assay: Reaction with glutathione (1H-NMR)
Conditions: 2 equivalents GSH, 1.1 mM complex, MeOD/D2O 1:1 v/v, pH 7.4, 298 K, less than 10 min

Row | Compound | Species seen by 1H-NMR after addition of GSH
1 | Cc1c(C)c(C)[c-](C)c1C.[Cl-].[Ir+3].c1ccc(-c2cc3ccccc3[n-]2)nc1 [complex 2, [Cp*Ir(ind-py)Cl]] | two species
2 | Cc1c(C)c(C)[c-](C)c1C.[Cl-].[Rh+3].c1ccc(-c2cc3ccccc3[n-]2)nc1 [complex 1, [Cp*Rh(ind-py)Cl]] | only one set of signals
3 | Cc1ccc(C(C)C)cc1.[Cl-].[Os+2].c1ccc(-c2cc3ccccc3[n-]2)nc1 [complex 4, [(p-cym)Os(ind-py)Cl]] | only one set of signals
4 | Cc1ccc(C(C)C)cc1.[Cl-].[Ru+2].c1ccc(-c2cc3ccccc3[n-]2)nc1 [complex 3, [(p-cym)Ru(ind-py)Cl]] | only one set of signals
